From publication PMC2391170 come the findings set out here.

These are yes or no findings as the source states them, for the method shown. Some binding calls cover weakened binding; strength is not graded here.

Sequences and labels used below:
T1: AtPCFS5 (Arabidopsis) (UniProt Q9FIX8)
T1 sequence: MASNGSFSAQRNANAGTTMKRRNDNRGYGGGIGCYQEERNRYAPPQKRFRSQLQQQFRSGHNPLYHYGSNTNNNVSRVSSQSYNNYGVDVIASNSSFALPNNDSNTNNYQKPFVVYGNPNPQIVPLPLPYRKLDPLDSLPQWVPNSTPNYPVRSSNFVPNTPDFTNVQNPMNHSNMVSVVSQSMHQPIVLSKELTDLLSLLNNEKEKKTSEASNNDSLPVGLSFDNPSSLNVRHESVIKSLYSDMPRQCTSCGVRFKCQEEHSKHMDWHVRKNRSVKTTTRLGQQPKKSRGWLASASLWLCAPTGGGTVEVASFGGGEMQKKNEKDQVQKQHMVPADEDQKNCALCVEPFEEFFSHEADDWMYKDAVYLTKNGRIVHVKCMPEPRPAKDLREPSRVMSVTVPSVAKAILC

T2: AtCPSF30 (Arabidopsis) (UniProt A9LNK9)
T2 sequence: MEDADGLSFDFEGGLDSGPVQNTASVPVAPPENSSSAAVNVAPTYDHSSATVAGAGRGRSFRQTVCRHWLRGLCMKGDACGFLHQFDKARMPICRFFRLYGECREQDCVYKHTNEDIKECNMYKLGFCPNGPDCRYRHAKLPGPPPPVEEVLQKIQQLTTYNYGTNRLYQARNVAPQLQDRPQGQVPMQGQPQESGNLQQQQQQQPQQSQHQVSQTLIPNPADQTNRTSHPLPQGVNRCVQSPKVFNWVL

T3: AtFIPS5 (Arabidopsis) (UniProt F4KDH9)
T3 sequence: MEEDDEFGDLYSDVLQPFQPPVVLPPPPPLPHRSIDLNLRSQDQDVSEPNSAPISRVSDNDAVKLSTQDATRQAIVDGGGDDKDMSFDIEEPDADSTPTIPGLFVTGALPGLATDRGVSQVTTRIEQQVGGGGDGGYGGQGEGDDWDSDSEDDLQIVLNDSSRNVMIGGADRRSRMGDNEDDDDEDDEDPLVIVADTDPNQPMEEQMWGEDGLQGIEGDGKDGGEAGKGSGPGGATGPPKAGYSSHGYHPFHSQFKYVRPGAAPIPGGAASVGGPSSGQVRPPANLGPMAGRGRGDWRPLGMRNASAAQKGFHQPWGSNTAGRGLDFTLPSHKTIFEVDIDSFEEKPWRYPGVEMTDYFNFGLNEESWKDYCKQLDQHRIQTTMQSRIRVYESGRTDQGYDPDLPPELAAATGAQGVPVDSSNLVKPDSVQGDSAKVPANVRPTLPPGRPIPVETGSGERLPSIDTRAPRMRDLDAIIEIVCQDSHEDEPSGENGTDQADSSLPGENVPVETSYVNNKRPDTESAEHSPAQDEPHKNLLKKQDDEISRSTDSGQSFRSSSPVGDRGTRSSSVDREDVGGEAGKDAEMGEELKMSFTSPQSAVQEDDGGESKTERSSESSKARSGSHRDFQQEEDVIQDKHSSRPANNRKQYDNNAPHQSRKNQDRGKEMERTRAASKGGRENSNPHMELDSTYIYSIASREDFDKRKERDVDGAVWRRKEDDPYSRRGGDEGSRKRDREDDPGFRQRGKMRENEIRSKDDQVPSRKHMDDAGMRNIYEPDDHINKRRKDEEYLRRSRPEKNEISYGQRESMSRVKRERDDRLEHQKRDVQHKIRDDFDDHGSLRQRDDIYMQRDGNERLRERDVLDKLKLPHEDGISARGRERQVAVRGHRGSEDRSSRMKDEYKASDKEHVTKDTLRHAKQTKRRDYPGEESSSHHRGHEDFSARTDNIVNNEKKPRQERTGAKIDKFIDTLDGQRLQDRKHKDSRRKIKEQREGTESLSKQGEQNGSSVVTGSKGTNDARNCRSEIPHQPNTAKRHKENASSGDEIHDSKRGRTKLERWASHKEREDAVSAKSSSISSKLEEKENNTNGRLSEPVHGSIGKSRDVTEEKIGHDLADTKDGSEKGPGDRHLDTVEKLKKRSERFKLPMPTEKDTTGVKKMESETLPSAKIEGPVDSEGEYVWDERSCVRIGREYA

T4: AtPCFS1 (Arabidopsis) (UniProt Q9C710)
T4 sequence: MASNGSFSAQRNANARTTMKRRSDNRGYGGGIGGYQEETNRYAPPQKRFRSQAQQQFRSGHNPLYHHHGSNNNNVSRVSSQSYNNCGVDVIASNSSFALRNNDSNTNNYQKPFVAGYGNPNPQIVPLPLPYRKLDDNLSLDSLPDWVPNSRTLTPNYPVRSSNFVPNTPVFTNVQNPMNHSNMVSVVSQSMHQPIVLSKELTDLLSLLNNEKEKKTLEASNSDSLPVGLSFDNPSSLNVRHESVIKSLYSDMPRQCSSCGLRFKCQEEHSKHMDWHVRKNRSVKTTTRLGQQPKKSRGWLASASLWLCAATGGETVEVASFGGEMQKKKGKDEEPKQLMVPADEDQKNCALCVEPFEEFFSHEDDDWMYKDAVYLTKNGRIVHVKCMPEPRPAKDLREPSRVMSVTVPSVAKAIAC

B1: AtCPSF30 (protein, UniProt A9LNK9-2 1-250)
chain: T2 sequence
B2: AtCFIS2 (protein, UniProt Q8GXS3 1-200)
chain: MAMSQVVNTYPLSNYSFGTKEPKLEKDTSVADRLARMKINYMKEGMRTSVEGILLVQEHNHPHILLLQIGNTFCKLPGGRLKPGENEADGLKRKLTSKLGGNSAALVPDWTVGECVATWWRPNFETMMYPYCPPHITKPKECKRLYIVHLSEKEYFAVPKNLKLLAVPLFELYDNVQRYGPVISTIPQQLSRFHFNMISS
B3: AtCFIS1 (protein, UniProt Q94AF0 1-222)
chain: MGEEARALDMEEISDNTTRRNDVVHDLMVDLYPLSSYYFGSKEALRVKDEIISDRVIRLKSNYAAHGLRTCVEAVLLVELFKHPHVLLLQYRNSIFKLPGGRLRPGESDIEGLKRKLASKLSVNENVGVSGYEVGECIGMWWRPNFETLMYPFLPPNIKHPKECTKLFLVRLPVHQQFVVPKNFKLLAVPLCQLHENEKTYGPIMSQIPKLLSKFSFNMMEI

The first assay concerns the target T1, AtPCFS5 (Arabidopsis). Briefly: two-hybrid; AD (pGAD-C(1)) and BD (pGBD-C(1)) fusions in yeast PJ69-4; dual transformants tested on media lacking leucine, tryptophan and adenine; positive if all tested colonies (4 to 10) grew; both combinations of clones tested whenever possible.
As for B1, the binding entry is “binds”.

For the molecule B2, the binding entry was “no binding”.

In the case of B3, the binding result is “no binding”.

A further assay addresses T2, AtCPSF30 (Arabidopsis). Described as above.
B1: the binding result is “binds”.

On to B2, for which the binding entry is “binds”.

As for B3, the binding result is “no binding”.

For a further assay, the target named is T3, AtFIPS5 (Arabidopsis). The description is as above.
In the case of B1, the binding result is reported as “binds”.

Take B2: the binding result was “binds”.

Take B3: the binding result is “binds”.

Another assay deals with T4, AtPCFS1 (Arabidopsis). The description is as above.
As for B1, the binding entry is “binds”.

In the case of B2, the binding result is recorded as “no binding”.

On to B3, for which the binding result is reported as “no binding”.
